Source: the supplement of paper PMC8256030
Several values for one entry are separate records, joined by “and”; a condition that tells them apart may be missing. Equal values may be shown once. This is one part of the list. Single values are uncertain here, since repeats match poorly.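 HEK293T cells were given each compound shortly before transfection with a reporter in which red mCherry is followed by the SARS-CoV-2 frameshift element and then GFP in the −1 frame, so GFP appears only after frameshifting.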

Tested on: HEK293T
Test: percent viability (nuclei count) relative to control; higher = more viable cells
Details: 10 µM; 24 h

Row | SMILES | percent viability
1 | OC(CCN1CCCCC1)(c1ccccc1)C1CCCCC1 (centres undefined) [trihexyphenidyl] | 115%
2 | CC1=C(/C=C/C(C)=C/C=C/C(C)=C/C=C/C=C(C)/C=C/C=C(C)/C=C/C2=C(C)CCCC2(C)C)C(C)(C)CCC1 | 255%
3 | O=C(O)COc1nn(Cc2ccccc2)c2ccccc12 [bendazac] | 197%
4 | NC(=O)N1c2ccccc2CC(=O)c2ccccc21 [oxcarbazepine] | 348% and 243%
5 | C[C@@H]1C[C@H]2[C@@H]3C[C@H](F)C4=CC(=O)C=C[C@]4(C)[C@H]3[C@@H](O)C[C@]2(C)[C@H]1C(=O)CO [fluocortolone] | 225%
6 | CCCCc1nc(Cl)c(CO)n1Cc1ccc(-c2ccccc2-c2nnn[nH]2)cc1 [Losartan potassium] | 69.2%
7 | CCCc1ncc(C[n+]2ccccc2C)c(N)n1 | 362%
8 | CC(=O)CC(c1ccc([N+](=O)[O-])cc1)c1c(O)c2ccccc2oc1=O (centres undefined) | 136%
9 | CCCC(=O)O[C@]1(C(=O)CO)CC[C@H]2[C@@H]3CCC4=CC(=O)CC[C@]4(C)[C@H]3[C@@H](O)C[C@@]21C | 326%
10 | CC(COc1ccccc1Cc1ccccc1)N1CCCCC1 (centres undefined) [benproperine] | 220%
11 | O=S(=O)(O)CCCS(=O)(=O)O | 398%
12 | CCn1nc(C(=O)O)c(=O)c2cc3c(cc21)OCO3 [cinoxacin] | 126%
13 | CC(C)(CO)NCC(O)c1ccccc1 (centres undefined) [fepradinol] | 298%
14 | NCCS | 226%
15 | CC[C@H]1OC(=O)[C@H](C)[C@@H](O[C@H]2C[C@@](C)(OC)[C@@H](O)[C@H](C)O2)[C@H](C)[C@@H](O[C@@H]2O[C@H](C)C[C@H](N(C)C)[C@H]2O)[C@](C)(O)C[C@@H](C)/C(=N\OCOCCOC)[C@H](C)[C@@H](O)[C@]1(C)O [Roxithromycin] | 210%
16 | CC(C)C[C@H](NC(=O)[C@@H](Cc1ccc2ccccc2c1)NC(=O)[C@H](Cc1ccc(O)cc1)NC(=O)[C@H](CO)NC(=O)[C@H](Cc1c[nH]c2ccccc12)NC(=O)[C@H](Cc1cnc[nH]1)NC(=O)[C@@H]1CCC(=O)N1)C(=O)N[C@@H](CCCN=C(N)N)C(=O)N1CCC[C@H]1C(=O)NCC(N)=O [nafarelin] | 213%
17 | Cc1cc(CC(=O)O)n(C)c1C(=O)c1ccc(Cl)cc1 [zomepirac] | 162%
18 | Cc1nc2n(c(=O)c1CCN1CCC(c3noc4cc(F)ccc34)CC1)CCCC2 [risperidone] | 328% and 257%
19 | CCCCC[C@H](O)/C=C/[C@@H]1[C@@H](C/C=C\CCCC(=O)O)[C@@H](O)C[C@H]1O [Dinoprost Tromethamine] | 56.2%
20 | OC(CCN1CCCCC1)(c1ccccc1)C1CCCC1 (centres undefined) [cycrimine] | 77.6%

Sorted by number of heavy atoms (rising): some entries from above
Row | SMILES | percent viability
11 | O=S(=O)(O)CCCS(=O)(=O)O | 398%
3 | O=C(O)COc1nn(Cc2ccccc2)c2ccccc12 [bendazac] | 197%
1 | OC(CCN1CCCCC1)(c1ccccc1)C1CCCCC1 (centres undefined) [trihexyphenidyl] | 115%

Following part.

Row | SMILES | percent viability
21 | CCCCOC(=O)c1ccc(N)cc1 | 114%
22 | Clc1cccc(Cl)c1NC1=NCCN1 [clonidine] | 232%
23 | CN1CCC(CN2c3ccccc3Sc3ccccc32)C1 (centres undefined) [methdilazine] | 446%
24 | NCC(O)CC(=O)O (centres undefined) | 258%
25 | O=C(O)[C@@H]1CCCN1 [proline] | 111%
26 | O=CNc1ncc([N+](=O)[O-])s1 [forminitrazole] | 183%
27 | CC(C(=O)O)c1ccc(N2Cc3ccccc3C2=O)cc1 (centres undefined) [indoprofen] | 149%
28 | O=C(O)C1CSC(C(=O)O)N1 (centres undefined) [tidiacic] | 147%
29 | O=C1CC[C@@H](C(=O)O)N1 [pidolic acid] | 401%
30 | C=CCOc1ccc(CC(=O)O)cc1Cl [alclofenac] | 161%
31 | Cc1ccccc1OCC(O)CNCCOc1ccc(C(N)=O)cc1 (centres undefined) [tolamolol] | 118%
32 | CC(=O)SC[C@@H](C)C(=O)N1CCC[C@H]1C(=O)N[C@@H](Cc1ccccc1)C(=O)O [alacepril] | 101%
33 | CN[C@H]1CC[C@@H](c2ccc(Cl)c(Cl)c2)c2ccccc21 | 361%
34 | O=C(Nc1cccc(C2=NCCN2)c1)Nc1cccc(C2=NCCN2)c1 [imidocarb] | 218%
35 | CCCCN1C[C@H](O)[C@@H](O)[C@H](O)[C@H]1CO [miglustat] | 233%
36 | COc1cc([C@@H]2c3cc4c(cc3[C@@H](O[C@@H]3O[C@@H]5CO[C@@H](c6cccs6)O[C@H]5[C@H](O)[C@H]3O)[C@H]3COC(=O)[C@H]23)OCO4)cc(OC)c1O | 58.5%
37 | N[C@@H]1CONC1=O [cycloserine] | 161%
38 | CC1CCCC(C)N1CCCC(O)(c1ccccc1)c1ccccn1 (centres undefined) [pirmenol] | 188%
39 | Nc1ccc(C(=O)NCC(=O)O)cc1 | 384%
